Values from PubChem BioAssay AID1259405 (NCATS, 2018).

Assay: 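Silenced genes that increase secreted GFP made by CHO cells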 (primary screen)
System: Chinese hamster CHO-K1 ovary cells with stable secreted eGFP expression
Reagents: single siRNA against mouse genes, 0.8 pmol siRNA per well (2 µl of 400 nM stock)
Timing: 3 days
Read-out: 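Per-well intracellular GFP measured by laser scanning cytometry, plus viability from ATP luminescence, each relative to plate median of non-targeting control wells, in %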
Direction: GFP, % of control: higher = more GFP per well, higher productivity; viability (ATP), % of control: higher = more viable cells (more ATP)
Call rule: 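a knock-down is called active if GFP reaches 120% or more of non-targeting control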
Here is one part, drawn at random, of about 50,000 reagents. About 4,000 of them (8%) count as active. 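Mouse siRNA library applied to hamster cells; one well for each siRNA.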 A number with no mark means an inactive call. Reagents against one gene are numbered here. Reagent sequences are not shown.

The first 5 entries as a preview:
no.	gene knocked down	siRNA no.	GFP, % of control	viability (ATP), % of control
1	Sag	1	76.3	58.7
2	Sag	2	62.4	56.9
3	Srp9	1	50.8	68.9
4	Srp9	2	61.1	88.1
5	Srp9	3	58.4	81.2

Main list, from the first entry:
no.	gene knocked down	siRNA no.	GFP, % of control	viability (ATP), % of control
1	Sag	1	76.3	58.7
2	Sag	2	62.4	56.9
3	Srp9	1	50.8	68.9
4	Srp9	2	61.1	88.1
5	Srp9	3	58.4	81.2
6	Rassf9	1	69.4	84.8
7	Rassf9	2	69.2	55.7
8	Tbata	1	123 (active)	77.6
9	Tbata	2	91.8	47
10	Tbata	3	103	57.4
11	Arhgef6	1	106	75.1
12	Arhgef6	2	58.9	68.7
13	Arhgef6	3	93.9	99.1
14	Cstad	1	79.3	67.8
15	Cstad	2	111	94.7
16	Cstad	3	103	112
17	Vcp	1	6.62	6.49
18	Vcp	2	57.1	67.2
19	Vcp	3	25.4	17.1
20	Cog3	1	27.2	54.4
21	Cog3	2	69	78.7
22	Cog3	3	62	102
23	Obox6	1	22.5	39.4
24	Obox6	2	87.3	60.3
25	Obox6	3	18.1	41.2
26	Zfp956	1	90.1	83.4
27	Zfp956	2	85	61.9
28	Zfp956	3	133 (active)	91.5
29	Serinc4	1	61.7	71.5
30	Serinc4	2	76.7	81
31	Serinc4	3	101	81.4
32	B3galt5	1	130 (active)	90.1
33	B3galt5	2	106	130
34	B3galt5	3	101	131
35	Nln	1	62.4	68.7
36	Nln	2	75.4	63.9
37	Nln	3	27.5	31.2
38	Slc25a35	1	142 (active)	136
39	Slc25a35	2	58.9	52.2
40	Slc25a35	3	108	89.9
41	Gtf3c2	1	40.9	30.8
42	Gtf3c2	2	66.3	47.3
43	Gtf3c2	3	92.5	124
44	Samd13	1	135 (active)	52.6
45	Samd13	2	40.9	36.7
46	Samd13	3	57.7	55.8
47	Adam25	1	107	75.5
48	Adam25	2	59.8	75.2
49	Adam25	3	102	95.1
50	Cdk8	1	67.7	68.4
51	Nmnat1	1	31.3	51.2
52	Nmnat1	2	126 (active)	125
53	Nmnat1	3	70.7	86.2
54	Ctnna3	1	202 (active)	80.4
55	Ctnna3	2	55.4	65.8
56	Fam163a	1	80.3	73.5
57	Fam163a	2	68.4	66.7
58	Fam163a	3	48.8	64.6
